Data taken from publication PMC4890852.

The chains behind the UniProt entries cited, without tags or fusion partners.
UniProt P02828: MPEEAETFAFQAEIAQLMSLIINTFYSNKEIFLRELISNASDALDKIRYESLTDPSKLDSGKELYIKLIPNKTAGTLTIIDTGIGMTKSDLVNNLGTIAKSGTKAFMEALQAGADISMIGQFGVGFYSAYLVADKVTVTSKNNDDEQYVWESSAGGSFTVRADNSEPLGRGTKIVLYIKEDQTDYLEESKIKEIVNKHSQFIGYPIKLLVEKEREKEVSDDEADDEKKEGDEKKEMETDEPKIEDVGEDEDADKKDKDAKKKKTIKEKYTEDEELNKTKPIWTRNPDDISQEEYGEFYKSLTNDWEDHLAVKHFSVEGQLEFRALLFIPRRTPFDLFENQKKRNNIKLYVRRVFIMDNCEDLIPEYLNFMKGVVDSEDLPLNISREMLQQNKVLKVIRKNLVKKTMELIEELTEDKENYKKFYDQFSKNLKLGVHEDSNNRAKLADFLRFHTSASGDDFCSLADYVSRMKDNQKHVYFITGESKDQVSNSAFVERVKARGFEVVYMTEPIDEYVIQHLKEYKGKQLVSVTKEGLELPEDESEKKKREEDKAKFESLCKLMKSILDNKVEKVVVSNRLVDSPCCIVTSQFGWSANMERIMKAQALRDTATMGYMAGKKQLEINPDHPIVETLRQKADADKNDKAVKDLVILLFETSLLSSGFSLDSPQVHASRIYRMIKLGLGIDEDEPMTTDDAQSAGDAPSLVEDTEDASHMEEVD

Biological target: T1, HA:Nmnat (Drosophila NMNAT) (Drosophila) (UniProt Q9VC03)
T1 sequence: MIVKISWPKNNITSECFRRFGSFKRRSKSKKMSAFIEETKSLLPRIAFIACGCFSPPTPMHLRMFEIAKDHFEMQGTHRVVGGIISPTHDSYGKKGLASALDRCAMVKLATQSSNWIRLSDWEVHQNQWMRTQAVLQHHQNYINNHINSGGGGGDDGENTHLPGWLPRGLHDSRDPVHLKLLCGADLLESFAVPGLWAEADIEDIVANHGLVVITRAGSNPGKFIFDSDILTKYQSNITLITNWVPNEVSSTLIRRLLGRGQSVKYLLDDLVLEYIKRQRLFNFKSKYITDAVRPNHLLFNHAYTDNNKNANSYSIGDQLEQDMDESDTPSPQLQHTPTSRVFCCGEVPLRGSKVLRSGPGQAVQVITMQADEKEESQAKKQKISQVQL
Test: affinity purification with mass spectrometry; heads of flies expressing HA:Nmnat; lysis in 25 mM Tris-HCl pH 7.5, 150 mM NaCl, 5 mM EDTA, 1% NP-40, 1 mM DTT; anti-HA affinity gel, eluted with HA peptide; LC-MS/MS

## HSP83, the Drosophila HSP90 homolog (from UniProt P02828 1-717)
  binding: binds

Results are given in words; binding and its absence hold for the method and conditions named. In cells and extracts the contact can be indirect. These calls come from enrichment with a bait or labelling near it, and not all partners need be listed. Where a sequence is shown, tags or fusion partners need not be part of it.
